Experimental findings from publication doi:10.1101/2023.01.03.522548 are described below.

Amino acid sequences for entries named in this document (tags omitted).
UniProt Q86WV6: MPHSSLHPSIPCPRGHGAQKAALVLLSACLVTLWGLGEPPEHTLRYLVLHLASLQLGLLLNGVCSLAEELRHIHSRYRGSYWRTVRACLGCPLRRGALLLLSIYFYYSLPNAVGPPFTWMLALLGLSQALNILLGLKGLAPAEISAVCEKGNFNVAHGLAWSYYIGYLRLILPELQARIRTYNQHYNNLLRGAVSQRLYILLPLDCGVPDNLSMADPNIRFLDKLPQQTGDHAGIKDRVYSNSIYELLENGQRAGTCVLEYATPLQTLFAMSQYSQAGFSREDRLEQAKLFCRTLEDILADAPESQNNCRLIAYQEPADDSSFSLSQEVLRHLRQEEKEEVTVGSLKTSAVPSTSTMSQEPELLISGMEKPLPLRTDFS
UniProt Q8N884: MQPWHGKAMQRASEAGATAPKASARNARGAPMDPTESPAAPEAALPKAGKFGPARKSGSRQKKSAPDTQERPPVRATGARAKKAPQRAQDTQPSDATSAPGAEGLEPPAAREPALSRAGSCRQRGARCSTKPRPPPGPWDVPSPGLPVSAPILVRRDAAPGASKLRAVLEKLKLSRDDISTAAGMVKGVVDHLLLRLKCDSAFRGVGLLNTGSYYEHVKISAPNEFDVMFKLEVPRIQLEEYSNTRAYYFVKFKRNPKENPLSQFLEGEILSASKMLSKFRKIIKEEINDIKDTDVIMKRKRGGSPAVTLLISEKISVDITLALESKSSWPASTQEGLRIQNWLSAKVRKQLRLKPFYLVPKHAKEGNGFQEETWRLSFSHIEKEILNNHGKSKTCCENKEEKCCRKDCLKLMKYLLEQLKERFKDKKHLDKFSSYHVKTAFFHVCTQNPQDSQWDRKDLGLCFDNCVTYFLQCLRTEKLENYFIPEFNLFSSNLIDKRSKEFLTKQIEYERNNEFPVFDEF

Common to all, as to test: co-IP
One assay has as its target T1, Flag-IRF3 (UniProt Q14653).
T1 sequence: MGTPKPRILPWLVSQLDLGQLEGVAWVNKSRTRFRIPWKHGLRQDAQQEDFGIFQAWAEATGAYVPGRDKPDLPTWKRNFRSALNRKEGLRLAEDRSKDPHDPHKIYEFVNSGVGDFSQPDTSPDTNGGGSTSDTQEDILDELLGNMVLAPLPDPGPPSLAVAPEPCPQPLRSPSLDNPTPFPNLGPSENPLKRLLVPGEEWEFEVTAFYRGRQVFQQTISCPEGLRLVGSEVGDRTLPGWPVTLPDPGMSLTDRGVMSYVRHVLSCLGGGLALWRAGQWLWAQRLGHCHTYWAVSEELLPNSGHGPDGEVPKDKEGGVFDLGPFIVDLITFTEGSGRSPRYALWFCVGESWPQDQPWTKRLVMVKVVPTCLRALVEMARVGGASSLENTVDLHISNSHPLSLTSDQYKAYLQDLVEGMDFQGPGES

The target of a further assay is Flag-STING (UniProt Q86WV6).
The target of a further assay is Flag-cGAS (human) (UniProt Q8N884).

Results are given in words; binding and its absence hold for the method and conditions named. In cells and extracts the contact can be indirect. Some results given as binding are weak or reduced against the parent protein; the word gives no strength. Sequences can lack the tags named with a protein.

B1: Myc-HERC5 (protein, UniProt Q9UII4 1-1024)
chain: MERRSRRKSRRNGRSTAGKAAATQPAKSPGAQLWLFPSAAGLHRALLRRVEVTRQLCCSPGRLAVLERGGAGVQVHQLLAGSGGARTPKCIKLGKNMKIHSVDQGAEHMLILSSDGKPFEYDNYSMKHLRFESILQEKKIIQITCGDYHSLALSKGGELFAWGQNLHGQLGVGRKFPSTTTPQIVEHLAGVPLAQISAGEAHSMALSMSGNIYSWGKNECGQLGLGHTESKDDPSLIEGLDNQKVEFVACGGSHSALLTQDGLLFTFGAGKHGQLGHNSTQNELRPCLVAELVGYRVTQIACGRWHTLAYVSDLGKVFSFGSGKDGQLGNGGTRDQLMPLPVKVSSSEELKLESHTSEKELIMIAGGNQSILLWIKKENSYVNLKRTIPTLNEGTVKRWIADVETKRWQSTKREIQEIFSSPACLTGSFLRKRRTTEMMPVYLDLNKARNIFKELTQKDWITNMITTCLKDNLLKRLPFHSPPQEALEIFFLLPECPMMHISNNWESLVVPFAKVVCKMSDQSSLVLEEYWATLQESTFSKLVQMFKTAVICQLDYWDESAEENGNVQALLEMLKKLHRVNQVKCQLPESIFQVDELLHRLNFFVEVCRRYLWKMTVDASENVQCCVIFSHFPFIFNNLSKIKLLHTDTLLKIESKKHKAYLRSAAIEEERESEFALRPTFDLTVRRNHLIEDVLNQLSQFENEDLRKELWVSFSGEIGYDLGGVKKEFFYCLFAEMIQPEYGMFMYPEGASCMWFPVKPKFEKKRYFFFGVLCGLSLFNCNVANLPFPLALFKKLLDQMPSLEDLKELSPDLGKNLQTLLDDEGDNFEEVFYIHFNVHWDRNDTNLIPNGSSITVNQTNKRDYVSKYINYIFNDSVKAVYEEFRRGFYKMCDEDIIKLFHPEELKDVIVGNTDYDWKTFEKNARYEPGYNSSHPTIVMFWKAFHKLTLEEKKKFLVFLTGTDRLQMKDLNNMKITFCCPESWNERDPIRALTCFSVLFLPKYSTMETVEEALQEAINNNRGFG
For the molecule B1, the binding result with Flag-IRF3 is listed as “binds”; with Flag-STING, “no binding”; with Flag-cGAS (human) it was “binds”.
